In all, about 33,000 sequences were measured (“E-score (-0.5 to 0.5)”: median about -8e-05, highest 2% from about 0.23 on). The list shows a part of the results.
Molecular target: T1, Nrg2 (UniProt P38082)
T1 sequence: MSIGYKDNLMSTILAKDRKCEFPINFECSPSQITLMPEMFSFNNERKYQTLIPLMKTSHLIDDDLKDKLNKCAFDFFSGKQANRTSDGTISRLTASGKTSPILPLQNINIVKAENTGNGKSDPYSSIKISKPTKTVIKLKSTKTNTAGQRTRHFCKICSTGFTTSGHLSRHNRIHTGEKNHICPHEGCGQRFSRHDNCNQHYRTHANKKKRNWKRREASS
Assay: PBM E-score (8-mer binding enrichment) (E-score (-0.5 to 0.5)); higher = stronger / more preferred TF binding
Settings: protein concentration: 100 nM; construct: GST-full length
Procedure, shortened: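 Each ungapped eight-base word and its reverse complement, pooled, received an E-score from the Universal PBM Analysis Suite. Underlying scans, normalised with masliner, recorded fluorescent anti-GST bound to GST-tagged yeast transcription factors. These were applied at about 100-200 nM to universal all-10-mer Agilent arrays double-stranded by primer extension.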

Row | Sequence | PBM E-score
1 | ACGCCCCC | -0.156
2 | CGCACGTA | -0.00821
3 | TTACCTAA | -0.0262
4 | GGGCGTAC | 0.0663
5 | GAATATTA | 0.232
6 | CCAATGCG | -0.127
7 | CTGCGGTA | -0.00643
8 | ACCATTTA | -0.00179
9 | GTTGAAGA | 0.0239
10 | GACACTAA | 0.131
11 | AAGATCAA | 0.088
12 | ATCTATGC | 0.117
13 | TCTCGTCA | 0.0764
14 | CCGACTAA | -0.134
15 | GATCTCAC | -0.0162
16 | AATTAATC | 0.0951
17 | GTTGCAAA | 0.158
18 | AATAGCCA | 0.035
19 | CTCCGCGC | -0.0513
20 | CTGCATGC | 0.144
21 | AGGGTCTC | 0.308
22 | AGTGCCTC | -0.108
23 | CGCGATAG | 0.15
24 | ATCGTACG | 0.086
25 | AACAGCCC | -0.136

Row | Sequence | PBM E-score
26 | GAGAACTC | -0.111
27 | AAACGCAC | -0.00143
28 | CCCAGGTA | -0.151
29 | CAATGGGC | -0.0843
30 | CCCCTCGA | 0.121
31 | GCTTATAC | -0.208
32 | TCTGGAAA | 0.0743
33 | AGAGAGTA | -0.0585
34 | GAGGCAAC | -0.192
35 | ACGTCCAA | -0.0568
36 | GTTGGTAA | -0.043
37 | CGCTGCTA | -0.0942
38 | TCCACCGA | -0.0753
39 | AAGGGATG | -0.0799
40 | CGTGGAGA | -0.0602
41 | ATGAGCGG | -0.0809
42 | GGCTTAAC | -0.0343
43 | ACGATTCG | 0.107
44 | TACTGCTA | 0.0534
45 | AGGGCCCT | 0.432
46 | AAACACAT | 0.118
47 | ATCTGCTC | -0.0264
48 | GCAGGTTA | -0.0237
49 | AAATGACT | -0.0401
50 | ACTGCGGG | 0.00944

Row | Sequence | PBM E-score
51 | ATCAGACG | 0.0404
52 | AGTCGTAC | -0.0754
53 | ATCCTCGG | 0.0757
54 | AGAATAGC | 0.117
55 | TGGAGCAA | 0.0576
56 | ACGAGGGG | -0.201
57 | GCGTTGAC | -0.0746
58 | CCCAATAA | 0.0301
59 | AGCCATTG | 0.0047
60 | AAAGTCAT | -0.0344
61 | AGGACTAA | -0.0768
62 | CACGAGGG | -0.0848
63 | GAGCGGAA | 0.182
64 | AATGTGAC | 0.168
65 | AGATCCAC | 0.105
66 | ACAGGTAG | -0.129
67 | AGCAAGGA | -0.0607
68 | CGTGTGCA | -0.102
69 | AAACGCGC | 0.0818
70 | CAAGTGGG | -0.088
71 | CACCCGTC | -0.0242
72 | ACTCACTG | 0.00588
73 | AAGTGTAA | -0.0105
74 | CAACGGCC | -0.0402
75 | AACAACAA | 0.1

Row | Sequence | PBM E-score
76 | TCAGTGCA | 0.0253
77 | AAAGGTTC | -0.0576
78 | AGAATACG | -0.098
79 | CACAACAG | -0.125
80 | CTTGGTCC | 0.0286
81 | AAGGGAAG | -0.00193
82 | AACCGGGA | 0.0291
83 | CAGCAGGA | -0.0714
84 | GAACACAC | -0.0346
85 | CAAATCCG | -0.112
86 | CAATGGTC | 0.0134
87 | CACTGCCA | 0.0346
88 | AAGGTGTA | -0.0479
89 | ACTGGCTG | -0.0262
90 | ACAACTCC | 0.13
91 | GCGACTAC | 0.0831
92 | CCATGCAA | 0.247
93 | AAAGCATT | -0.0472
94 | AACCCAGT | -0.00769
95 | CGATCTAA | 0.00408
96 | GGGGGACC | -0.261
97 | CTATACGC | 0.0606
98 | CTGCTTCC | -0.12
99 | AGAAGTTC | -0.0862
100 | CAGTCCCA | -0.189

Row | Sequence | PBM E-score
101 | AGCCTGGG | -0.159
102 | CAACCTAG | -0.0396
103 | AATGCTCC | -0.191
104 | ATAATGGC | 0.0701
105 | GTCGAAAA | 0.172
106 | ATCCGGGG | 0.134
107 | TAAAACTA | 0.0863
108 | AATTAACA | 0.207
109 | TGGCGACA | 0.00499
110 | AGCTGTGA | -0.0158
111 | CTTTAGTA | -0.00347
112 | AGAATGAT | 0.065
113 | CAATAGTA | 0.031
114 | AAGTACTC | -0.0318
115 | GTTGTCCA | 0.124
116 | GTTCGTAA | -0.0741
117 | AAATCCAG | 0.196
118 | ACGCTTAT | -0.112
119 | GACCAGGC | -0.197
120 | AGAGACAG | 0.0857
121 | GTGCAGAA | -0.134
122 | AGATTAGC | -0.0167
123 | CTAGGATC | 0.00898
124 | ATTTGGAA | 0.0293
125 | TAATTCCA | 0.0521

Row | Sequence | PBM E-score
126 | CTTGCGAC | -0.142
127 | AACTCCAC | -0.00775
128 | AAGGTCAA | -0.0299
129 | GCAGAGCA | -0.156
130 | GAGTCCTA | -0.166
131 | ATAGGGTA | 0.17
132 | ATCGAGCC | -0.103
133 | CGGCCCCA | -0.253
134 | GCTTAACA | -0.0681
135 | CATGCATA | 0.0326
136 | TGAAGGCA | 0.00885
137 | CTCACATA | 0.0352
138 | TAGTGGAA | -0.0809
139 | TCGGTGCA | -0.0187
140 | CCGGCAGA | -0.0781
141 | CGGCGATC | -0.11
142 | GCGCCGGA | -0.0477
143 | GGATCTGA | -0.0992
144 | ATTCGTCA | 0.173
145 | ACCCTGAC | 0.334
146 | AGTGTGCG | 0.128
147 | CCTTAGGC | -0.167
148 | AGTATCTA | 0.2
149 | ACGATTCC | 0.0207
150 | ATGGTGTC | 0.0375

Nos. 126 to 132 of the list above:
Row | Sequence | PBM E-score
126 | CTTGCGAC | -0.142
127 | AACTCCAC | -0.00775
128 | AAGGTCAA | -0.0299
129 | GCAGAGCA | -0.156
130 | GAGTCCTA | -0.166
131 | ATAGGGTA | 0.17
132 | ATCGAGCC | -0.103

(continued)

Row | Sequence | PBM E-score
151 | GTTATTGA | 0.122
152 | ATGGTATC | 0.135
153 | CAATGGGA | -0.072
154 | CATAGGCA | -0.123
155 | CGCCTAGA | -0.0501
156 | GGTCCTAA | -0.0628
157 | TCCCCGAA | -0.0516
158 | GGGAAGTA | 0.0865
159 | CAATCGCA | 0.133
160 | ACGACTCA | -0.122
161 | CGCCCACG | -0.0862
162 | CCGCTGTA | -0.0218
163 | GACGCATC | -0.0555
164 | TTAATTAA | 0.198
165 | ATGGGCCG | -0.0605
166 | GTCACTTA | 0.147
167 | AAGATTAT | 0.0533
168 | GATTATTA | 0.0599
169 | AATTTAGA | 0.0528
170 | TAATACAA | 0.235
171 | CCGGGTCC | -0.171
172 | TTCTACAA | 0.11
